Consider 5 sequences from PMC7708047, “VEZF1–guanine quadruplex DNA interaction regulates alternative polyadenylation and detyrosinase activity of VASH1”.

One may read the Kd as the free concentration of one partner at which half of the binding sites on the other are occupied at equilibrium, for simple one-to-one binding.

For at least one entry, the source does not settle the construct or the ends of the probe. For some assays here: Where cells or extracts were used, other partners may take part. For some assays here: Weaker means in comparison with the reference protein, sequence or condition of that experiment. Protein sequences can lack the tags named with them.

In data set [1] the target is T1, VEZF1-3xFlag (Homo sapiens) (UniProt Q14119).
T1 sequence (looked up): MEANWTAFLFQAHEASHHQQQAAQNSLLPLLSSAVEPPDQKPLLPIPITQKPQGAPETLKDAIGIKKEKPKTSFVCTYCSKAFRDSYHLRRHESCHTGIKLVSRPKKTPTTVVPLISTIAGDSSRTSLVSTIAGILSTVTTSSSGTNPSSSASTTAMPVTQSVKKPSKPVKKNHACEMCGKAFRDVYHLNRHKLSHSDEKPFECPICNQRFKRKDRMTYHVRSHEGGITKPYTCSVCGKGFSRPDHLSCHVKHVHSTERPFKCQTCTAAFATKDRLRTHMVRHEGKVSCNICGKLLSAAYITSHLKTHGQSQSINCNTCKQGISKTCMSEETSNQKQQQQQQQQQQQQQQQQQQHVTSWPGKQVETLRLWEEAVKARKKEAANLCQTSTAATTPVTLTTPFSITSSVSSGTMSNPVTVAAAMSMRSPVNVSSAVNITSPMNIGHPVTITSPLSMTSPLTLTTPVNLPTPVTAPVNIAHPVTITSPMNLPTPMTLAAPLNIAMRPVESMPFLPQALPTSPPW
Description: EMSA. The settings on record: 100 mM K+, 10 uM Zn2+, EMSA: 25 nM DNA, 10 mM Tris-HCl pH 7.5, 100 mM KCl, 10 uM ZnCl2, 1 mM DTT, 3% glycerol, on ice 30 min, 6% PAGE in TBE pH 8.3, 4 C, recombinant protein, residues 1-521, protein details: C-terminal 3xFlag, label: 5'-TAMRA, folded or branched DNA. For orientation: A gel shift assay detects complexes by their altered migration in electrophoresis.

Data set [2] has as its target T2, VEZF1 (endogenous) (Homo sapiens) (UniProt Q14119).
T2 sequence (looked up, limits assumed): T1 sequence (looked up)
Nature of the data set: pull-down, SILAC LC-MS/MS. The note with it: protein in an extract, label: biotin.

For “TCGGGAGTGTGGAGGGAGGTGCTGGGCCTGAGCTGAGAGCAGCTTAGGGGGCA [R1G4-2]”, the Kd in data set [1] (value assigned to G4-2 by order) was 730 nM.

For “TGAGGGTGAGGAGTGTGGGGA [MYC M4 biotin probe]”, the binding result in data set [2] (single-stranded DNA) is “binds more weakly”.

Turning to “AAAGGGTTAGGGTTAGGGTTAGGGAA [hTEL G4 biotin probe]”, the binding result in data set [2] (folded or branched DNA) is reported as “binds”. For the sequence “AAAGGGTTAGTGTTAGTGTTAGGGAA [hTEL M4 biotin probe]”, the binding result in data set [2] (single-stranded DNA) is listed as “binds more weakly”.

Take “GTGGGAGGTGGAAGTGAAAGAAGGGAAGAGCAGGGAGAGTGGGCC [R1G4-1]”: in data set [1] (value assigned to G4-1 by order), the Kd was found to be 649 nM.
